PubChem BioAssay AID652243 – Drosophila RNAi Screening Center – 2013
Purpose: 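Fly regulators of androgen-dependent reporter output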 (primary screen). Cell system: Drosophila S2R+ cells. Reagent: long dsRNA against Drosophila genes. Duration: 72 h (48 h, then 24 h hormone). Challenge: synthetic androgen R1881 at 10 nM for 24 h. Measurement: 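Firefly light from an androgen-responsive reporter and Renilla control light per well, raw and unnormalised, for each of two replicates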. Scale: firefly reporter light: higher = more light from androgen-responsive reporter; Renilla control light: higher = more constitutive control signal (cell number, transfection). Hit rule: 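Across duplicate plates, a knock-down whose log firefly/Renilla ratio shifted a set fold down or up from the GFP/LacZ control mean was a hit; the downward cut appears as both 1.5 and 3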. Meaning of the calls: active = hit: reporter lowered or raised; inactive = no hit.
In all, the deposit lists about 24,000 reagents; shown is a random part of those that have a named target and a result. In the full data, 246 (1%) were called active. 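Plates not normalised; calls are printed but the firefly/Renilla ratio behind them is not deposited; fold cut for lowering reported inconsistently.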 Raw values are not corrected between plates. Reagents against one gene are numbered here. A plus sign joins genes that one reagent is predicted to hit. Reagent sequences are not shown. The record does not give: the amount of reagent.

The first 6 records, ahead of the listing:
Gene | dsRNA no. | firefly reporter light, replicate 1 | firefly reporter light, replicate 2 | Renilla control light, replicate 1 | Renilla control light, replicate 2 | outcome
CG14561 (GeneID 40447) | 1 | 58273 | 60797 | 9.61e5 | 9.14e5 | inactive
CG7069 (GeneID 42621) | 1 | 86269 | 61153 | 7.52e5 | 5.98e5 | inactive
CG7069 (GeneID 42621) | 2 | – | – | – | – | inactive
CG7069 (GeneID 42621) | 3 | – | – | – | – | inactive
Cad96Cb (GeneID 43033) | 1 | 1.32e5 | 1.48e5 | 1.78e6 | 1.55e6 | inactive
Cad96Cb (GeneID 43033) | 2 | 1.69e5 | 2.43e5 | 2.54e6 | 2.17e6 | inactive

Results, repeating the preview:
Gene | dsRNA no. | firefly reporter light, replicate 1 | firefly reporter light, replicate 2 | Renilla control light, replicate 1 | Renilla control light, replicate 2 | outcome
CG14561 (GeneID 40447) | 1 | 58273 | 60797 | 9.61e5 | 9.14e5 | inactive
CG7069 (GeneID 42621) | 1 | 86269 | 61153 | 7.52e5 | 5.98e5 | inactive
CG7069 (GeneID 42621) | 2 | – | – | – | – | inactive
CG7069 (GeneID 42621) | 3 | – | – | – | – | inactive
Cad96Cb (GeneID 43033) | 1 | 1.32e5 | 1.48e5 | 1.78e6 | 1.55e6 | inactive
Cad96Cb (GeneID 43033) | 2 | 1.69e5 | 2.43e5 | 2.54e6 | 2.17e6 | inactive
Cad96Cb (GeneID 43033) | 3 | 4.48e5 | 4.60e5 | 1.28e6 | 1.32e6 | inactive
nvy (GeneID 37886) | 1 | 5.02e5 | 3.72e5 | 2.64e6 | 2.16e6 | inactive
ry (GeneID 41605) | 1 | 81575 | 50836 | 3.27e5 | 2.80e5 | inactive
ry (GeneID 41605) | 2 | 3.55e5 | 2.61e5 | 5.26e5 | 5.42e5 | inactive
CG32706 + CG6999 | 1 | 3.14e5 | 3.74e5 | 2.38e6 | 2.17e6 | inactive
CG32706 + CG6999 | 2 | 6.48e5 | 6.72e5 | 1.09e6 | 1.03e6 | inactive
Atg13 (GeneID 40998) | 1 | 1.53e5 | 1.36e5 | 2.89e6 | 2.40e6 | inactive
CG30428 (GeneID 246608) | 1 | 2.16e5 | 2.51e5 | 5.62e5 | 6.29e5 | inactive
CG30428 (GeneID 246608) | 2 | 3.39e5 | 8.27e5 | 9.91e5 | 2.25e6 | inactive
Cap-D3 + tomb | 1 | 1.27e5 | 1.40e5 | 1.21e6 | 1.12e6 | inactive
Vha16-2 (GeneID 39282) | 1 | 2.89e5 | 2.30e5 | 2.31e6 | 1.93e6 | inactive
Vha16-2 (GeneID 39282) | 2 | 9.26e5 | 5.01e5 | 2.04e6 | 7.19e5 | inactive
Ack (GeneID 38489) | 1 | 1.13e5 | 97321 | 7.15e5 | 1.09e6 | inactive
Ack (GeneID 38489) | 2 | 5.50e5 | 4.24e5 | 1.27e6 | 1.07e6 | inactive
Ack (GeneID 38489) | 3 | – | – | – | – | active
CG15185 (GeneID 40798) | 1 | 1.59e5 | 1.38e5 | 2.71e6 | 2.19e6 | inactive
Vps16B (GeneID 43521) | 1 | 1.68e5 | 1.63e5 | 2.04e6 | 2.90e6 | inactive
Arfrp1 (GeneID 31841) | 1 | 1.84e5 | 1.97e5 | 7.98e5 | 9.53e5 | inactive
retm (GeneID 33899) | 1 | 2.79e5 | 4.89e5 | 9.70e5 | 1.23e6 | inactive
Mocs2A + CR42201 + Mocs2B | 1 | 9.29e5 | 9.07e5 | 1.82e6 | 2.05e6 | inactive
CG17931 + CG42446 | 1 | 2.36e5 | 1.89e5 | 3.00e6 | 3.04e6 | inactive
Nelf-A (GeneID 42520) | 1 | 1.22e5 | 1.84e5 | 8.89e5 | 9.03e5 | inactive
Fbw5 (GeneID 33854) | 1 | 1.97e5 | 1.86e5 | 2.42e6 | 1.76e6 | inactive
Fbw5 (GeneID 33854) | 2 | 7.30e5 | 9.12e5 | 8.58e5 | 8.58e5 | inactive
CG5235 (GeneID 39758) | 1 | 2.10e5 | 1.81e5 | 1.66e6 | 1.51e6 | inactive
Ctr1C (GeneID 43668) | 1 | 2.50e5 | 2.37e5 | 2.38e6 | 2.43e6 | inactive
TAF1C-like (GeneID 37450) | 1 | 9.05e5 | 1.14e6 | 2.63e6 | 2.15e6 | inactive
CG8219 (GeneID 38722) | 1 | 2.11e5 | 1.94e5 | 2.13e6 | 1.77e6 | inactive
CG8219 (GeneID 38722) | 2 | 9.82e5 | 1.08e6 | 9.36e5 | 9.37e5 | inactive
B9d1 (GeneID 41888) | 1 | 1.79e5 | 2.17e5 | 2.17e6 | 2.18e6 | inactive
RpS21 (GeneID 33487) | 1 | 3.07e5 | 3.34e5 | 2.62e6 | 2.67e6 | inactive
RpS21 (GeneID 33487) | 2 | 2.29e5 | 5.90e5 | 5.47e5 | 1.06e6 | inactive
alphaTub84B (GeneID 40848) | 1 | 42323 | 72991 | 1.46e6 | 1.52e6 | inactive
alphaTub84B (GeneID 40848) | 2 | 2.96e5 | 2.86e5 | 6.30e5 | 5.33e5 | inactive
Phk-3 (GeneID 37997) | 1 | 3.72e5 | 5.43e5 | 1.93e6 | 2.26e6 | inactive
Veneno (GeneID 41000) | 1 | 56907 | 80069 | 1.09e6 | 1.05e6 | inactive
Sox102F (GeneID 43844) | 1 | 1.27e5 | 97376 | 1.24e6 | 6.60e5 | inactive
Sox102F (GeneID 43844) | 2 | 3.41e5 | 3.64e5 | 1.05e6 | 1.06e6 | inactive
Trp1 (GeneID 34333) | 1 | 1.44e5 | 1.12e5 | 1.14e6 | 1.24e6 | inactive
Trp1 (GeneID 34333) | 2 | 5.60e5 | 3.27e5 | 8.92e5 | 4.98e5 | inactive
CG11626 (GeneID 42323) | 1 | 2.42e5 | 3.67e5 | 3.06e6 | 3.59e6 | inactive
Exo70 (GeneID 38959) | 1 | 1.43e5 | 1.33e5 | 1.49e6 | 1.74e6 | inactive
Adsl (GeneID 42051) | 1 | 57570 | 1.10e5 | 4.99e5 | 7.86e5 | inactive
Shal (GeneID 40129) | 1 | 89985 | 1.16e5 | 2.84e5 | 2.94e5 | inactive
Shal (GeneID 40129) | 2 | 2.58e5 | 2.16e5 | 2.41e6 | 2.73e6 | inactive
Fitm (GeneID 38596) | 1 | 7.74e5 | 8.82e5 | 1.16e6 | 1.18e6 | inactive
Fitm (GeneID 38596) | 2 | 3.32e5 | 2.83e5 | 7.81e5 | 9.23e5 | inactive
dtr (GeneID 318856) | 1 | 3.27e5 | 4.29e5 | 7.98e5 | 6.60e5 | inactive
CG43117 (GeneID 12798272) | 1 | 7.59e5 | 8.17e5 | 8.24e5 | 9.81e5 | inactive
CG43117 (GeneID 12798272) | 2 | 2.66e5 | 2.83e5 | 7.75e5 | 7.44e5 | inactive
mago (GeneID 37402) | 1 | 2.40e5 | 1.51e5 | 1.82e6 | 1.28e6 | inactive
CG15800 (GeneID 37763) | 1 | 2.30e5 | 2.27e5 | 1.83e6 | 1.63e6 | inactive
Sems (GeneID 40315) | 1 | 3.80e5 | 2.43e5 | 3.69e6 | 2.42e6 | inactive
Sems (GeneID 40315) | 2 | 5.46e5 | 4.97e5 | 1.26e6 | 1.12e6 | inactive
Ugt302K1 (GeneID 53502) | 1 | 776 | 794 | – | – | inactive
CG12708 + CG15646 | 1 | 8.06e5 | 5.58e5 | 1.06e6 | 7.99e5 | inactive
RpL41 (GeneID 251466) | 1 | 6.53e5 | 1.35e6 | 8.45e5 | 1.91e6 | inactive
Gr39b (GeneID 117347) | 1 | 2.18e5 | 2.01e5 | 4.86e5 | 4.21e5 | inactive
Gr39b (GeneID 117347) | 2 | 2.86e5 | 3.63e5 | 7.20e5 | 6.53e5 | inactive
CG11889 + CG11891 | 1 | 1.49e5 | 2.36e5 | 2.23e6 | 2.52e6 | inactive
CG11889 + CG11891 | 2 | 1.57e5 | 2.02e5 | 2.51e6 | 2.48e6 | inactive
CG11889 + CG11891 | 3 | 6.06e5 | 6.00e5 | 7.37e5 | 8.74e5 | inactive
CR30029 (GeneID 5740197) | 1 | 3.87e5 | 3.46e5 | 2.25e6 | 2.00e6 | inactive
Doa (GeneID 43415) | 1 | 1.71e5 | 1.72e5 | 1.71e5 | 1.47e5 | inactive
Doa (GeneID 43415) | 2 | 70199 | 1.78e5 | 2.33e5 | 3.25e5 | inactive
Doa (GeneID 43415) | 3 | 1.85e5 | 1.09e5 | 1.80e5 | 1.08e5 | inactive
Doa (GeneID 43415) | 4 | 3.13e5 | 3.30e5 | 4.77e5 | 8.54e5 | inactive
Doa (GeneID 43415) | 5 | 1.24e5 | 1.06e5 | 9.67e5 | 7.36e5 | inactive
Doa (GeneID 43415) | 6 | 3.92e5 | 3.71e5 | 6.00e5 | 5.86e5 | inactive
Doa (GeneID 43415) | 7 | – | – | – | – | inactive
Doa (GeneID 43415) | 8 | – | – | – | – | inactive
